In the supplement of paper PMC8728848:
The list shows a part of the results.

Key:
Assay in all cases: glycan array binding signal (z-score within array); higher = stronger binding
Settings in all cases: glycan notation: IUPAC condensed, linker removed
[1] = molecular target: Neu5Ac(a2-3)Gal(b1-4)GlcNAc(b1-6)GalNAc
Procedure, shortened: (§1)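 Glycan array data were curated from 3228 arrays in the Consortium for Functional Glycomics database and kept only where the protein sequence was available. Glycan names were converted to IUPAC-condensed notation, and columns mapping to the same glycan were averaged. The binding signal is a within-array Z-score, averaged across arrays of the same protein sequence at different concentrations or buffers and across linkers. Negative Z-scores can be read as non-binding.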

[2] = molecular target: Neu5Ac(a2-3)Gal(b1-4)GlcNAc(b1-6)[Gal(b1-3)]GalNAc
Procedure, shortened: as §1

[3] = molecular target: Neu5Ac(a2-3)Gal(b1-4)GlcNAc(b1-6)[Neu5Ac(a2-3)Gal(b1-3)]GalNAc
Procedure, shortened: as §1

[4] = molecular target: Neu5Ac(a2-3)Gal(b1-4)GlcNAc6S
Procedure, shortened: as §1

[5] = molecular target: Neu5Ac(a2-3)Gal(b1-4)[Fuc(a1-3)]GlcNAc
Procedure, shortened: as §1

[6] = molecular target: Neu5Ac(a2-3)Gal(b1-4)[Fuc(a1-3)]GlcNAc(b1-2)Man
Procedure, shortened: as §1

[7] = molecular target: Neu5Ac(a2-3)Gal(b1-4)[Fuc(a1-3)]GlcNAc(b1-3)Gal
Procedure, shortened: as §1

[8] = molecular target: Neu5Ac(a2-3)Gal(b1-4)[Fuc(a1-3)]GlcNAc(b1-3)Gal(b1-4)GlcNAc
Procedure, shortened: as §1

[9] = molecular target: Neu5Ac(a2-3)Gal(b1-4)[Fuc(a1-3)]GlcNAc(b1-3)Gal(b1-4)[Fuc(a1-3)]GlcNAc(b1-3)Gal(b1-4)[Fuc(a1-3)]GlcNAc
Procedure, shortened: as §1

[10] = molecular target: Neu5Ac(a2-3)Gal(b1-4)[Fuc(a1-3)]GlcNAc(b1-3)GalNAc
Procedure, shortened: as §1

[11] = molecular target: Neu5Ac(a2-3)Gal(b1-4)[Fuc(a1-3)]GlcNAc(b1-6)[Gal(b1-3)]GalNAc
Procedure, shortened: as §1

[12] = molecular target: Neu5Ac(a2-3)Gal(b1-4)[Fuc(a1-3)]GlcNAc(b1-6)[Neu5Ac(a2-3)Gal(b1-3)]GalNAc
Procedure, shortened: as §1

[13] = molecular target: Neu5Ac(a2-3)Gal(b1-4)[Fuc(a1-3)]GlcNAc6S
Procedure, shortened: as §1

[14] = molecular target: Neu5Ac(a2-3)Gal6S(b1-4)GlcNAc
Procedure, shortened: as §1

[15] = molecular target: Neu5Ac(a2-3)Gal6S(b1-4)[Fuc(a1-3)]GlcNAc
Procedure, shortened: as §1

Neu5Ac(a2-3)GalNAc = molecular target: Neu5Ac(a2-3)GalNAc
Procedure, shortened: as §1

[16] = molecular target: Neu5Ac(a2-3)GalNAc(b1-4)GlcNAc
Procedure, shortened: as §1

[17] = molecular target: Neu5Ac(a2-3)[GalNAc(b1-4)]Gal(b1-4)Glc
Procedure, shortened: as §1

[18] = molecular target: Neu5Ac(a2-3)[GalNAc(b1-4)]Gal(b1-4)GlcNAc
Procedure, shortened: as §1

[19] = molecular target: Neu5Ac(a2-3)[GalNAc(b1-4)]Gal(b1-4)GlcNAc(b1-3)GalNAc
Procedure, shortened: as §1

[20] = molecular target: Neu5Ac(a2-3)[Neu5Ac(a2-6)]GalNAc
Procedure, shortened: as §1

Neu5Ac(a2-6)Gal = molecular target: Neu5Ac(a2-6)Gal
Procedure, shortened: as §1

[21] = molecular target: Neu5Ac(a2-6)Gal(b1-3)GlcNAc(b1-3)[Gal(b1-4)GlcNAc(b1-6)]Gal(b1-4)Glc
Procedure, shortened: as §1

Neu5Ac(a2-6)Gal(b1-4)Glc = molecular target: Neu5Ac(a2-6)Gal(b1-4)Glc
Procedure, shortened: as §1

[22] = molecular target: Neu5Ac(a2-6)Gal(b1-4)GlcNAc
Procedure, shortened: as §1

[23] = molecular target: Neu5Ac(a2-6)Gal(b1-4)GlcNAc(b1-2)Man
Procedure, shortened: as §1

[24] = molecular target: Neu5Ac(a2-6)Gal(b1-4)GlcNAc(b1-2)Man(a1-3)Man(b1-4)GlcNAc(b1-4)GlcNAc
Procedure, shortened: as §1

[25] = molecular target: Neu5Ac(a2-6)Gal(b1-4)GlcNAc(b1-2)Man(a1-3)[Gal(b1-4)GlcNAc(b1-2)Man(a1-6)]Man(b1-4)GlcNAc(b1-4)GlcNAc
Procedure, shortened: as §1

[26] = molecular target: Neu5Ac(a2-6)Gal(b1-4)GlcNAc(b1-2)Man(a1-3)[GlcNAc(b1-2)Man(a1-6)]Man(b1-4)GlcNAc(b1-4)GlcNAc
Procedure, shortened: as §1

[27] = molecular target: Neu5Ac(a2-6)Gal(b1-4)GlcNAc(b1-2)Man(a1-3)[GlcNAc(b1-4)][Neu5Ac(a2-6)Gal(b1-4)GlcNAc(b1-2)Man(a1-6)]Man(b1-4)GlcNAc(b1-4)GlcNAc
Procedure, shortened: as §1

[28] = molecular target: Neu5Ac(a2-6)Gal(b1-4)GlcNAc(b1-2)Man(a1-3)[Man(a1-6)]Man(b1-4)GlcNAc(b1-4)GlcNAc
Procedure, shortened: as §1

[29] = molecular target: Neu5Ac(a2-6)Gal(b1-4)GlcNAc(b1-2)Man(a1-3)[Neu5Ac(a2-3)Gal(b1-4)GlcNAc(b1-2)Man(a1-6)]Man(b1-4)GlcNAc(b1-4)GlcNAc
Procedure, shortened: as §1

[30] = molecular target: Neu5Ac(a2-6)Gal(b1-4)GlcNAc(b1-2)Man(a1-3)[Neu5Ac(a2-6)Gal(b1-4)GlcNAc(b1-2)Man(a1-6)]Man(b1-4)GlcNAc(b1-4)GlcNAc
Procedure, shortened: as §1

[31] = molecular target: Neu5Ac(a2-6)Gal(b1-4)GlcNAc(b1-2)Man(a1-3)[Neu5Ac(a2-6)Gal(b1-4)GlcNAc(b1-2)Man(a1-6)]Man(b1-4)GlcNAc(b1-4)[Fuc(a1-6)]GlcNAc
Procedure, shortened: as §1

[32] = molecular target: Neu5Ac(a2-6)Gal(b1-4)GlcNAc(b1-2)Man(a1-6)Man(b1-4)GlcNAc(b1-4)GlcNAc
Procedure, shortened: as §1

[33] = molecular target: Neu5Ac(a2-6)Gal(b1-4)GlcNAc(b1-2)Man(a1-6)[Gal(b1-4)GlcNAc(b1-2)Man(a1-3)]Man(b1-4)GlcNAc(b1-4)GlcNAc
Procedure, shortened: as §1

[34] = molecular target: Neu5Ac(a2-6)Gal(b1-4)GlcNAc(b1-2)Man(a1-6)[GlcNAc(b1-2)Man(a1-3)]Man(b1-4)GlcNAc(b1-4)GlcNAc
Procedure, shortened: as §1

[35] = molecular target: Neu5Ac(a2-6)Gal(b1-4)GlcNAc(b1-2)Man(a1-6)[Man(a1-3)]Man(b1-4)GlcNAc(b1-4)GlcNAc
Procedure, shortened: as §1

[36] = molecular target: Neu5Ac(a2-6)Gal(b1-4)GlcNAc(b1-2)[Neu5Ac(a2-6)Gal(b1-4)GlcNAc(b1-4)]Man(a1-3)[GlcNAc(b1-4)][Neu5Ac(a2-6)Gal(b1-4)GlcNAc(b1-2)[Neu5Ac(a2-6)Gal(b1-4)GlcNAc(b1-6)]Man(a1-6)]Man(b1-4)GlcNAc(b1-4)GlcNAc
Procedure, shortened: as §1

[37] = molecular target: Neu5Ac(a2-6)Gal(b1-4)GlcNAc(b1-2)[Neu5Ac(a2-6)Gal(b1-4)GlcNAc(b1-4)]Man(a1-3)[GlcNAc(b1-4)][Neu5Ac(a2-6)Gal(b1-4)GlcNAc(b1-4)Man(a1-6)]Man(b1-4)GlcNAc(b1-4)GlcNAc
Procedure, shortened: as §1

[38] = molecular target: Neu5Ac(a2-6)Gal(b1-4)GlcNAc(b1-2)[Neu5Ac(a2-6)Gal(b1-4)GlcNAc(b1-6)]Man(a1-6)[Neu5Ac(a2-6)Gal(b1-4)GlcNAc(b1-2)Man(a1-3)][GlcNAc(b1-4)]Man(b1-4)GlcNAc(b1-4)GlcNAc
Procedure, shortened: as §1

[39] = molecular target: Neu5Ac(a2-6)Gal(b1-4)GlcNAc(b1-3)Gal(b1-3)GlcNAc
Procedure, shortened: as §1

[40] = molecular target: Neu5Ac(a2-6)Gal(b1-4)GlcNAc(b1-3)Gal(b1-4)GlcNAc
Procedure, shortened: as §1

[41] = molecular target: Neu5Ac(a2-6)Gal(b1-4)GlcNAc(b1-3)Gal(b1-4)GlcNAc(b1-2)Man(a1-3)[Neu5Ac(a2-6)Gal(b1-4)GlcNAc(b1-3)Gal(b1-4)GlcNAc(b1-2)Man(a1-6)]GalNAc
Procedure, shortened: as §1

[42] = molecular target: Neu5Ac(a2-6)Gal(b1-4)GlcNAc(b1-3)Gal(b1-4)GlcNAc(b1-3)Gal(b1-4)GlcNAc
Procedure, shortened: as §1

[43] = molecular target: Neu5Ac(a2-6)Gal(b1-4)GlcNAc(b1-3)Gal(b1-4)GlcNAc(b1-3)Gal(b1-4)GlcNAc(b1-2)Man(a1-3)[Neu5Ac(a2-6)Gal(b1-4)GlcNAc(b1-3)Gal(b1-4)GlcNAc(b1-3)Gal(b1-4)GlcNAc(b1-2)Man(a1-6)]GalNAc
Procedure, shortened: as §1

B1: LF82 (Escherichia coli) (protein)
chain: ADWGPCRTASGDPFIFVTSFTKNIQNPTDNVTGQTYPDFYQWALGDKYSGVCECPSPNPTEARPTLYKTESTLAAGHNSTYFKITNNLEVSTRVYIANVGNVQVPFINKSNSQPGRECDQPTFGWTTGSKGQLSLYIAKPFVGEQNIPQTIIVSVFGTKKENVYSSVPISQVLLSGKVTVTQGCELAAGTSLDIDFGEYQAHDFKGRTGQPPQNVQKIQKELTFNCTNISDGVHIYLSLEGTPNAAYPSAISLGNADVGAVIEDGKGNILKPNDSNSLLEMNPGSLYEYVKRKVTTTITAYPVSTTGKLPAAGDYSGVATMHVELDGGGGGGGGGGATTDLGAKGTLKFSLKISQGHHHHHH
[1]
  glycan array binding signal (z-score): -0.235
[2]
  glycan array binding signal (z-score): -0.627
[3]
  glycan array binding signal (z-score): -0.112
[4]
  glycan array binding signal (z-score): -0.062
[5]
  glycan array binding signal (z-score): 0.053
[6]
  glycan array binding signal (z-score): 0.94
[7]
  glycan array binding signal (z-score): -0.536
[8]
  glycan array binding signal (z-score): 0.281
[9]
  glycan array binding signal (z-score): 0.12
[10]
  glycan array binding signal (z-score): 0.56
[11]
  glycan array binding signal (z-score): 0.33
[12]
  glycan array binding signal (z-score): -1.44
[13]
  glycan array binding signal (z-score): -0.095
[14]
  glycan array binding signal (z-score): -0.781
[15]
  glycan array binding signal (z-score): -1.07
Neu5Ac(a2-3)GalNAc
  glycan array binding signal (z-score): -0.906
[16]
  glycan array binding signal (z-score): -1.36
[17]
  glycan array binding signal (z-score): -0.486
[18]
  glycan array binding signal (z-score): 0.414
[19]
  glycan array binding signal (z-score): 0.267
[20]
  glycan array binding signal (z-score): 0.367
Neu5Ac(a2-6)Gal
  glycan array binding signal (z-score): -0.439
[21]
  glycan array binding signal (z-score): 2.17
Neu5Ac(a2-6)Gal(b1-4)Glc
  glycan array binding signal (z-score): -0.089
[22]
  glycan array binding signal (z-score): -0.085
[23]
  glycan array binding signal (z-score): -0.733
[24]
  glycan array binding signal (z-score): 0.186
[25]
  glycan array binding signal (z-score): 2.29
[26]
  glycan array binding signal (z-score): 0.59
[27]
  glycan array binding signal (z-score): 0.413
[28]
  glycan array binding signal (z-score): 0.519
[29]
  glycan array binding signal (z-score): -0.052
[30]
  glycan array binding signal (z-score): -0.056
[31]
  glycan array binding signal (z-score): -0.085
[32]
  glycan array binding signal (z-score): 0.902
[33]
  glycan array binding signal (z-score): 0.283
[34]
  glycan array binding signal (z-score): -0.805
[35]
  glycan array binding signal (z-score): 0.813
[36]
  glycan array binding signal (z-score): -0.903
[37]
  glycan array binding signal (z-score): -0.76
[38]
  glycan array binding signal (z-score): -0.002
[39]
  glycan array binding signal (z-score): -0.797
[40]
  glycan array binding signal (z-score): -0.824
[41]
  glycan array binding signal (z-score): 0.015
[42]
  glycan array binding signal (z-score): 0.668
[43]
  glycan array binding signal (z-score): 0.574
